The supplement of paper PMC10032668
Some of the results follow. The list holds hits alone, and they repeat only in part.

By UniProt entry, the sequences of proteins in these tests, tags left out.
EIF4A1, P60842, UniProt P60842, whole entry: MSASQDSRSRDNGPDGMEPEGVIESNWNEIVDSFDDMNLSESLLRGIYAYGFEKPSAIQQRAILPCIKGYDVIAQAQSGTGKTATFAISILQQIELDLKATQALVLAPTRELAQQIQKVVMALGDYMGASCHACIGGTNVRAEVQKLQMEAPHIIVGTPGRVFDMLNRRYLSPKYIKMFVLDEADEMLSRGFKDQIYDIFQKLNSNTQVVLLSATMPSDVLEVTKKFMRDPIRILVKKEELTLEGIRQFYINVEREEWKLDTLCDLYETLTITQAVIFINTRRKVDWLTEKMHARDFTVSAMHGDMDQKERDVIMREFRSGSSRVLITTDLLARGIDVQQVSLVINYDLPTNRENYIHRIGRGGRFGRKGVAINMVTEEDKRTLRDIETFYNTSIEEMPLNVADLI
PIN4, Q9Y237, UniProt Q9Y237, whole entry: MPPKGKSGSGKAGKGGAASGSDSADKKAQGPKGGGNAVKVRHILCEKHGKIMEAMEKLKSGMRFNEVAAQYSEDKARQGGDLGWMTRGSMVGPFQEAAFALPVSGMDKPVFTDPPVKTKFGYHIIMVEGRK
PPP1CB, P62140, UniProt P62140, whole entry: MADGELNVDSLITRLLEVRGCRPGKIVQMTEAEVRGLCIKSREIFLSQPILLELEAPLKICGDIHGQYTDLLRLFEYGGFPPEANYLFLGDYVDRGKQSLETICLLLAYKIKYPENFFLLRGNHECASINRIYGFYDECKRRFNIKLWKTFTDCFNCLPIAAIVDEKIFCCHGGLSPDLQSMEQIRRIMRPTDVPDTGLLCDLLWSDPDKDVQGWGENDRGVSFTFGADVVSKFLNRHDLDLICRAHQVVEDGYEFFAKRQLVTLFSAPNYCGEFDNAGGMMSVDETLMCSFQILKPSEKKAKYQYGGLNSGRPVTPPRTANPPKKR
SF3B1, O75533, UniProt O75533, whole entry: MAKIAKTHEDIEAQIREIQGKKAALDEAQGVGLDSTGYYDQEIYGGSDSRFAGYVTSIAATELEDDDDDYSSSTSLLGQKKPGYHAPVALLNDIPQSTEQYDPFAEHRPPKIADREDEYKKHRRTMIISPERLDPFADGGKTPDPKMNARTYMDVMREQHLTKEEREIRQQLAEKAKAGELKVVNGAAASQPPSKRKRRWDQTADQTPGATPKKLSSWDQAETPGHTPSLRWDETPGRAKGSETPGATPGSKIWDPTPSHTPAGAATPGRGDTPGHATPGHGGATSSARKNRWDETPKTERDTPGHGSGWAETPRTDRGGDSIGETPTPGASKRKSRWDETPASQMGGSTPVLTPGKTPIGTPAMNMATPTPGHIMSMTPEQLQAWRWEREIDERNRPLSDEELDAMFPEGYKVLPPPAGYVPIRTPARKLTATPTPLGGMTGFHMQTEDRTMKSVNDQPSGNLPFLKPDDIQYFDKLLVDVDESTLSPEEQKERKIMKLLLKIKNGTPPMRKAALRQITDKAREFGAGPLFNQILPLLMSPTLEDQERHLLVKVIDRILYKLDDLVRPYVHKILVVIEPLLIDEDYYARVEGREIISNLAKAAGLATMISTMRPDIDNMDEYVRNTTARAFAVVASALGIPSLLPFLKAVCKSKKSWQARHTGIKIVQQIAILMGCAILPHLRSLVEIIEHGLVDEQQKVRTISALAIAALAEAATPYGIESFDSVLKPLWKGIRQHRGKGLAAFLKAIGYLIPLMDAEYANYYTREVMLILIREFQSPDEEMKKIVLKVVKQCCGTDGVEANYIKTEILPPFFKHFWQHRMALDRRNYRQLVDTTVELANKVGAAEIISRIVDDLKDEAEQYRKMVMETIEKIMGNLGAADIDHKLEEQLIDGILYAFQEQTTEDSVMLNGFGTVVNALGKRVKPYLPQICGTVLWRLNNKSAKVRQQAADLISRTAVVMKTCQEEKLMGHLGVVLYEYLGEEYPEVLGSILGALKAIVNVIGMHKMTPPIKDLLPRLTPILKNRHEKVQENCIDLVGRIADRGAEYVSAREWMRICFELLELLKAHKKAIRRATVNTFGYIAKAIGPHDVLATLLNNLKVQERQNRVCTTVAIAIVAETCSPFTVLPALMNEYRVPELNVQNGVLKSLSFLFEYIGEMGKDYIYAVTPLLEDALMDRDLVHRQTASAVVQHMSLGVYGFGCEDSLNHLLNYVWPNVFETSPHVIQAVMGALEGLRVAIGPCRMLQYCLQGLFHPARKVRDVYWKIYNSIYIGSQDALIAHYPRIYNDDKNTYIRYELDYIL
EIF1, P41567, UniProt P41567, whole entry: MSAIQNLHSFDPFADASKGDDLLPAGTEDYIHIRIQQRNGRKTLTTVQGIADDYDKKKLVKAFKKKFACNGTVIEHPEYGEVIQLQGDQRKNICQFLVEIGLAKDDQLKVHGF
PARK7, Q99497, UniProt Q99497, whole entry: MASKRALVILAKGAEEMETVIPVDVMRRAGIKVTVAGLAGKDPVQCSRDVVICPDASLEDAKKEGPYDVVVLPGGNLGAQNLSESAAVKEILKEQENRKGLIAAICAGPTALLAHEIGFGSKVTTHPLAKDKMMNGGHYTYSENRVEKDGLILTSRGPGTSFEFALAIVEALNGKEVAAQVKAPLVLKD
PCBP2, Q15366, UniProt Q15366, whole entry: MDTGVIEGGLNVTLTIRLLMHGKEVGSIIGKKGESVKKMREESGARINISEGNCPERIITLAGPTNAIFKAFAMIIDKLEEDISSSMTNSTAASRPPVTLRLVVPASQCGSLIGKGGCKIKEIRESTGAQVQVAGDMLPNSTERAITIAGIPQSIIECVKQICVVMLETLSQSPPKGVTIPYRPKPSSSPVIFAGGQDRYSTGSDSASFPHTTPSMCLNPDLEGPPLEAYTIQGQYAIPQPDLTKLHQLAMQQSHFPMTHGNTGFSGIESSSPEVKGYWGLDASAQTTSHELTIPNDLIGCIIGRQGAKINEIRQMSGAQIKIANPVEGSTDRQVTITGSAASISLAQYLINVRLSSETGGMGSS
EIF2S2, P20042, UniProt P20042, whole entry: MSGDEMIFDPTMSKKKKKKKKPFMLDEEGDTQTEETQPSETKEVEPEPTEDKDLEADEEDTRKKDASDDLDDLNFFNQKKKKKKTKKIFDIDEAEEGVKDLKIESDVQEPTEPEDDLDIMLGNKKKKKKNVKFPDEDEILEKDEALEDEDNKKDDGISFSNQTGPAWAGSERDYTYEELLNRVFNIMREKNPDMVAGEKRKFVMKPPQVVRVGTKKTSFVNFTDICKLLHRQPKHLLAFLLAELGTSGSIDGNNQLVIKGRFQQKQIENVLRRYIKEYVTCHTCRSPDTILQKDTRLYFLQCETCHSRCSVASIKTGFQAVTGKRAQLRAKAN
LARP4, Q71RC2, UniProt Q71RC2, whole entry: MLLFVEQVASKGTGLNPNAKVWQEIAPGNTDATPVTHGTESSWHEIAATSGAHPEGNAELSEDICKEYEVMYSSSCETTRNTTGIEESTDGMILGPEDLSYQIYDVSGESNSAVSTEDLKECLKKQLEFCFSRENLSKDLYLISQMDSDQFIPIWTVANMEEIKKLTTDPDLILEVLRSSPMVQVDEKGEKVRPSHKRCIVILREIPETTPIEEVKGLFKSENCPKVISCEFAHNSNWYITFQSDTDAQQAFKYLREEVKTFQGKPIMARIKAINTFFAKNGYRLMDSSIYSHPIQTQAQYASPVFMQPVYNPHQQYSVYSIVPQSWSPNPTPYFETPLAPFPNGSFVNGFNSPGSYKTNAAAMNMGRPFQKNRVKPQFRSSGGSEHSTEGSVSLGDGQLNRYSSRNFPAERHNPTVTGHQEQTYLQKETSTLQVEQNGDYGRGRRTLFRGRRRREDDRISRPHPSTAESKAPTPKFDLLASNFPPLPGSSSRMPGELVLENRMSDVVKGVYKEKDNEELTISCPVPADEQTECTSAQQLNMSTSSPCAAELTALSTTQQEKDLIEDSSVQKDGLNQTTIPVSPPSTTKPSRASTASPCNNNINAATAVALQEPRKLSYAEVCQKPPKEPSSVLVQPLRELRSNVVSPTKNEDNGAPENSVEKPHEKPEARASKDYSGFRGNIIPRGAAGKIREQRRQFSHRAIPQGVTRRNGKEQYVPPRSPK
UBQLN1, Q9UMX0, UniProt Q9UMX0, whole entry: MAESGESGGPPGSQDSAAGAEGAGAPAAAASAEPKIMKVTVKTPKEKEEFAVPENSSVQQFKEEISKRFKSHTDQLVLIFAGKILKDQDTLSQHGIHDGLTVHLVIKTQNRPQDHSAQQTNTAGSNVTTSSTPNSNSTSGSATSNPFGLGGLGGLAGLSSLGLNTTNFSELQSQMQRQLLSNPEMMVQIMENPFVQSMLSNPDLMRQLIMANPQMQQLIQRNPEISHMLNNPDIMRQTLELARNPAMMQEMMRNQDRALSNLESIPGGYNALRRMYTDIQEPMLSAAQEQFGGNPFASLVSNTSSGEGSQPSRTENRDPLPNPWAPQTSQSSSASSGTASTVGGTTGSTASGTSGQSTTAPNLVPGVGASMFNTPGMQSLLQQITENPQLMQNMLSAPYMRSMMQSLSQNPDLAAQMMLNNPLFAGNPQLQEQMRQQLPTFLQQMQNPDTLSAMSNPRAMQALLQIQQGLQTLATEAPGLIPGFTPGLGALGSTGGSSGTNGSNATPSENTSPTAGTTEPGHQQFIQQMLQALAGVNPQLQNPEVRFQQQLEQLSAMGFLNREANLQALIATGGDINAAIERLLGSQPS

Tests used:
Experiment in all cases: PRISMA enrichment of interactor (LFQ) in peptide spot vs all other peptide spots (log2 fold change); higher = stronger / more specific binding of the interactor to the peptide
[1] = target: EHHADH, Q08426
Experimental: (§1)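 PRISMA: 15-aa overlapping tiles (offset 8 aa) of 60 microproteins, plus SOS1/GLUT1 control peptides, were spot-synthesized on cellulose membranes in triplicate. Membranes were incubated with benzonase-treated HEK293T lysate, and bound proteins were identified by LC-MS/MS with LFQ. Enrichment is the log2 fold change of each protein in one spot versus all other spots. Only interactors passing the significance cutoff are listed.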

[2] = target: EIF4A1, P60842
Experimental: as §1

[3] = target: HELLS, Q9NRZ9
Experimental: as §1

[4] = target: MARCKSL1, P49006
Experimental: as §1

[5] = target: NOP16, Q9Y3C1
Experimental: as §1

[6] = target: PAF1, Q8N7H5
Experimental: as §1

[7] = target: PEF1, Q9UBV8
Experimental: as §1

[8] = target: PIN4, Q9Y237
Experimental: as §1

[9] = target: PPP1CB, P62140
Experimental: as §1

[10] = target: PRDX4, Q13162
Experimental: as §1

[11] = target: PRMT1, Q99873
Experimental: as §1

[12] = target: RAB3GAP1, Q15042
Experimental: as §1

[13] = target: RALY, Q9UKM9
Experimental: as §1

[14] = target: SF3B1, O75533
Experimental: as §1

[15] = target: SFXN1, Q9H9B4
Experimental: as §1

[16] = target: SLC25A24, Q6NUK1
Experimental: as §1

[17] = target: TOMM6, Q96B49
Experimental: as §1

[18] = target: ZNF483, Q8TF39
Experimental: as §1

[19] = target: ZW10, O43264
Experimental: as §1

[20] = target: EIF1, P41567
Experimental: as §1

[21] = target: EIF4H, Q15056
Experimental: as §1

[22] = target: LSM12, Q3MHD2
Experimental: as §1

[23] = target: PARK7, Q99497
Experimental: as §1

[24] = target: PCBP2, Q15366
Experimental: as §1

[25] = target: EIF2AK2, P19525
Experimental: as §1

[26] = target: RAVER1, Q8IY67
Experimental: as §1

[27] = target: TMEM11, P17152
Experimental: as §1

[28] = target: EIF2B2, P49770
Experimental: as §1

[29] = target: UMPS, P11172
Experimental: as §1

[30] = target: EIF2S2, P20042
Experimental: as §1

[31] = target: MRPS11, P82912
Experimental: as §1

[32] = target: TACO1, Q9BSH4
Experimental: as §1

[33] = target: ELOVL5, Q9NYP7
Experimental: as §1

[34] = target: GDI2, P50395
Experimental: as §1

[35] = target: HADHB, P55084
Experimental: as §1

[36] = target: LARP4, Q71RC2
Experimental: as §1

[37] = target: NIPSNAP1, Q9BPW8
Experimental: as §1

[38] = target: PDF, Q9HBH1
Experimental: as §1

[39] = target: PHC2, Q8IXK0
Experimental: as §1

[40] = target: POP1, Q99575
Experimental: as §1

[41] = target: RNPS1, Q15287
Experimental: as §1

[42] = target: SHMT1, P34896
Experimental: as §1

[43] = target: SLC25A1, P53007
Experimental: as §1

[44] = target: SLC30A7, Q8NEW0
Experimental: as §1

[45] = target: UBQLN1, Q9UMX0
Experimental: as §1

[46] = target: ZNF593, O00488
Experimental: as §1

Question: For SEVLAEQRRPGMRLQ [ABR], which “PRISMA enrichment of interactor (log2)” value [1] is on record?
Answer: 6.8

Question: What about the “PRISMA enrichment of interactor (log2)” value [2] of the same binder?
Answer: 4.67

Question: And the “PRISMA enrichment of interactor (log2)” value [3]?
Answer: 4.85

Question: What about the “PRISMA enrichment of interactor (log2)” value [4] of the same binder?
Answer: 4.37

Question: And the “PRISMA enrichment of interactor (log2)” value [5]?
Answer: 4.68

Question: And the “PRISMA enrichment of interactor (log2)” value [6]?
Answer: 5.36

Question: What about the “PRISMA enrichment of interactor (log2)” value [7] of the same binder?
Answer: 4.89

Question: What about the “PRISMA enrichment of interactor (log2)” value [8] of the same binder?
Answer: 5.36

Question: What about the “PRISMA enrichment of interactor (log2)” value [9] of the same binder?
Answer: 5.14

Question: And the “PRISMA enrichment of interactor (log2)” value [10]?
Answer: 4.9

Question: And the “PRISMA enrichment of interactor (log2)” value [11]?
Answer: 5.34

Question: What about the “PRISMA enrichment of interactor (log2)” value [12] of the same binder?
Answer: 8.53

Question: And the “PRISMA enrichment of interactor (log2)” value [13]?
Answer: 4.92

Question: What about the “PRISMA enrichment of interactor (log2)” value [14] of the same binder?
Answer: 5.78

Question: And the “PRISMA enrichment of interactor (log2)” value [15]?
Answer: 4.69

Question: And the “PRISMA enrichment of interactor (log2)” value [16]?
Answer: 5.58

Question: What about the “PRISMA enrichment of interactor (log2)” value [17] of the same binder?
Answer: 6.07

Question: What about the “PRISMA enrichment of interactor (log2)” value [18] of the same binder?
Answer: 4.23

Question: And the “PRISMA enrichment of interactor (log2)” value [19]?
Answer: 5.54

Question: How did the “PRISMA enrichment of interactor (log2)” value [20] turn out when ALLQFWFVLCVHSVI [PDZRN3-AS1] was run?
Answer: 5

Question: And the “PRISMA enrichment of interactor (log2)” value [21]?
Answer: 4.55

Question: And the “PRISMA enrichment of interactor (log2)” value [22]?
Answer: 4.43

Question: What about the “PRISMA enrichment of interactor (log2)” value [23] of the same binder?
Answer: 4.84

Question: And the “PRISMA enrichment of interactor (log2)” value [24]?
Answer: 4.15

Question: What does the source list for GLVERGIEKSRRAYK [JHDM1D-AS1]?
Answer: PRISMA enrichment of interactor (log2) [25]: 7.02; PRISMA enrichment of interactor (log2) [26]: 4.68; PRISMA enrichment of interactor (log2) [27]: 5.06

Question: LLVGSGLGPFSGNIFLVT [BANCR] was tested. Which “PRISMA enrichment of interactor (log2)” value [28] did it give?
Answer: 5.13

Question: What about the “PRISMA enrichment of interactor (log2)” value [29] of the same binder?
Answer: 4.67

Question: Which “PRISMA enrichment of interactor (log2)” value [30] does the source give for MDDGNIRLSRNPSGN [SNHG8_2] here?
Answer: 5.3

Question: And the “PRISMA enrichment of interactor (log2)” value [31]?
Answer: 4.33

Question: What about the “PRISMA enrichment of interactor (log2)” value [32] of the same binder?
Answer: 5.91

Question: What does the source list for CSLKIPSARHFSWRK [PRR34-AS1]?
Answer: PRISMA enrichment of interactor (log2) [33]: 5.29; PRISMA enrichment of interactor (log2) [34]: 5.19; PRISMA enrichment of interactor (log2) [35]: 6.03; PRISMA enrichment of interactor (log2) [36]: 5.27; PRISMA enrichment of interactor (log2) [37]: 4.89; PRISMA enrichment of interactor (log2) [38]: 5.07; PRISMA enrichment of interactor (log2) [39]: 4.17; PRISMA enrichment of interactor (log2) [40]: 6.83; PRISMA enrichment of interactor (log2) [41]: 5.62; PRISMA enrichment of interactor (log2) [42]: 6.59; PRISMA enrichment of interactor (log2) [43]: 4.52; PRISMA enrichment of interactor (log2) [44]: 4.24; PRISMA enrichment of interactor (log2) [45]: 5.62; PRISMA enrichment of interactor (log2) [46]: 4.32
